From paper PMC6392097
These are yes or no findings as the source states them, for the method shown. Binding seen in cells or lysates may run through a third protein. Some results given as binding are weak or reduced against the parent protein; the word gives no strength.

Protein sequences, listed by entry. Tags and fused reporters are not part of them.
UniProt O77059: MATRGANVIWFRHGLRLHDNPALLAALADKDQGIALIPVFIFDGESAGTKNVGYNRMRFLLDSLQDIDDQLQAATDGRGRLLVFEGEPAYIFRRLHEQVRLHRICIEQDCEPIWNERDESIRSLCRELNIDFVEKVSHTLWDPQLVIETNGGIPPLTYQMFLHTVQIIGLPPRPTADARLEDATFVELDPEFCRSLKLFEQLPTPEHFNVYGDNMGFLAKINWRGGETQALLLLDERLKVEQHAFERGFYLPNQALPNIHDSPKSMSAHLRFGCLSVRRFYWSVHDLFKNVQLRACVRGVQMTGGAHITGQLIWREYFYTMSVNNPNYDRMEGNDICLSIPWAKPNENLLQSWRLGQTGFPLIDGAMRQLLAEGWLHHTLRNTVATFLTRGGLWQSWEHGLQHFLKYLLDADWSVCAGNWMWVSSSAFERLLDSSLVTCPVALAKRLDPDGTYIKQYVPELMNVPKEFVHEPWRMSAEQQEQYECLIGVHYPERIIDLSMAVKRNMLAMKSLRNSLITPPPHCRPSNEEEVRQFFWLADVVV
UniProt Q9VHP0: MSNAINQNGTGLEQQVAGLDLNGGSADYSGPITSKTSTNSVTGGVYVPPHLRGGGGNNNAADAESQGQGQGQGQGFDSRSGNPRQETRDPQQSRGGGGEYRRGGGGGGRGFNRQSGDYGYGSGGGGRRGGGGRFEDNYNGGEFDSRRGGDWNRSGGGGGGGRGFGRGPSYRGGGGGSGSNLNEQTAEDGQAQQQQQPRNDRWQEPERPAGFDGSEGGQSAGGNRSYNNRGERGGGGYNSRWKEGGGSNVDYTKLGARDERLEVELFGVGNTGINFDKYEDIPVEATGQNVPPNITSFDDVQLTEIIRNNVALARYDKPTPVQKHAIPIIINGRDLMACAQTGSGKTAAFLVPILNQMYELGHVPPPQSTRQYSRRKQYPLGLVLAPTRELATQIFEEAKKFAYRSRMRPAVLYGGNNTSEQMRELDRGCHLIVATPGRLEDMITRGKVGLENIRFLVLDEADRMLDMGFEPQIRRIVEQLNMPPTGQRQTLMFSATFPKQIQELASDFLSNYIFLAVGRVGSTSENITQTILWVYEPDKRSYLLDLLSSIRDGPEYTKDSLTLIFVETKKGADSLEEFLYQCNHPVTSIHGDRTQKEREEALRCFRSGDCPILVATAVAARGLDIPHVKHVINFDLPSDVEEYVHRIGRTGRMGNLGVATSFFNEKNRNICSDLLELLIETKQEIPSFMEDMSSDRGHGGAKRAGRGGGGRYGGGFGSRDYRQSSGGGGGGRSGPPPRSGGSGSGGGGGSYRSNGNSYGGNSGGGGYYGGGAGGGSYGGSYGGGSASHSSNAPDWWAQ

Molecular target: hemagglutinin (HA)-tagged form of dCRY (Drosophila melanogaster) (UniProt O77059)
Assay: co-IP; head extracts of HACRY-overexpressing flies, anti-HA co-immunoprecipitation, Western blot with anti-BELLE and anti-HA; flies collected at ZT24 in the dark and after a 15-min light pulse; tim-GAL4 flies as control

BELLE, DEAD box RNA helicase (from UniProt Q9VHP0 1-798)
binding: binds
